For assay [1], the target named is T1, RGL1-cYFP (Arabidopsis thaliana) (UniProt Q9C8Y3).
T1 sequence: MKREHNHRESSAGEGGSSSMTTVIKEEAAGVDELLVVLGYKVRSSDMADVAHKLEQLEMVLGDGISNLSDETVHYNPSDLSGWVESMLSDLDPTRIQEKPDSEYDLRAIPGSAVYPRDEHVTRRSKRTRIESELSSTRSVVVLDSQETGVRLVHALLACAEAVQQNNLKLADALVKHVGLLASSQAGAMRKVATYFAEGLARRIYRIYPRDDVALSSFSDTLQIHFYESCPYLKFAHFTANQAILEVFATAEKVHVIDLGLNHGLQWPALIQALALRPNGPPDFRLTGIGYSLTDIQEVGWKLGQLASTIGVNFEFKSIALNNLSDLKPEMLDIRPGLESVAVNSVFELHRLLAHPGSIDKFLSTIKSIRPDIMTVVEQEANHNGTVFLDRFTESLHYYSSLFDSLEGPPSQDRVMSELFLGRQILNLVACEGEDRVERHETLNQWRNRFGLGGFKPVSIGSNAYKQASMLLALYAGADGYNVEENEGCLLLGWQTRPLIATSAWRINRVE
Nature of the assay: split reporter; BiFC; nYFP and cYFP fusions co-expressed by Agrobacterium infiltration in N. benthamiana leaf epidermal cells; 24 °C, observed after 48 h.

The target in assay [2] is cYFP (C-terminal fragment of yellow fluorescent protein, alone). Described as above.

These are yes or no findings as the source states them, for the method shown. Binding seen in cells or lysates may run through a third protein. Where a sequence is shown, tags or fusion partners need not be part of it.

As for “nYFP (N-terminal fragment of yellow fluorescent protein, alone) (domain or fragment)”, in assay [1], the binding entry is “no binding”.

B1: bHLH48-nYFP (protein, UniProt Q8VZ02 1-327)
chain: MDLTQGFRARSGVVGPVAGLESLNFSDEFRHLVTTMPPETTGGSFTALLEMPVTQAMELLHFPDSSSSQARTVTSGDISPTTLHPFGALTFPSNSLLLDRAARFSVIATEQNGNFSGETANSLPSNPGANLDRVKAEPAETDSMVENQNQSYSSGKRKEREKKVKSSTKKNKSSVESDKLPYVHVRARRGQATDNHSLAERARREKINARMKLLQELVPGCDKIQGTALVLDEIINHVQTLQRQVEMLSMRLAAVNPRIDFNLDSILASENGSLMDGSFNAESYHQLQQWPFDGYHQPEWGREEDHHQANFSMGSATLHPNQVKMEL
Turning to B1, the binding entry in assay [2] is “no binding”.

B2: bHLH60-nYFP (protein, UniProt Q3EAI1 1-426)
chain: MDLTGGFGARSGGVGPCREPIGLESLHLGDEFRQLVTTLPPENPGGSFTALLELPPTQAVELLHFTDSSSSQQAAVTGIGGEIPPPLHSFGGTLAFPSNSVLMERAARFSVIATEQQNGNISGETPTSSVPSNSSANLDRVKTEPAETDSSQRLISDSAIENQIPCPNQNNRNGKRKDFEKKGKSSTKKNKSSEENEKLPYVHVRARRGQATDSHSLAERARREKINARMKLLQELVPGCDKGTDFGGKIKIKVCFGVHLLMISGKKVAIFLWKVSCEDLIDCSFSPPRIQGTALVLDEIINHVQSLQRQVEMLSMRLAAVNPRIDFNLDTILASENGSLMDGSFNAAPMQLAWPQQAIETEQSFHHRQLQQPPTQQWPFDGLNQPVWGREEDQAHGNDNSNLMAVSENVMVASANLHPNQVKMEL
As for B2, the binding entry in assay [2] was “no binding”.

These data come from publication PMC5853475.
